Measured values as given in patent publication US20200055913A1.
Results are given in words; binding and its absence hold for the method and conditions named. In cells and extracts the contact can be indirect. Some results given as binding are weak or reduced against the parent protein; the word gives no strength.

Protein sequences, listed by entry. Tags and fused reporters are not part of them. Residues count along the entry.
UniProt O00206, residues 24-631: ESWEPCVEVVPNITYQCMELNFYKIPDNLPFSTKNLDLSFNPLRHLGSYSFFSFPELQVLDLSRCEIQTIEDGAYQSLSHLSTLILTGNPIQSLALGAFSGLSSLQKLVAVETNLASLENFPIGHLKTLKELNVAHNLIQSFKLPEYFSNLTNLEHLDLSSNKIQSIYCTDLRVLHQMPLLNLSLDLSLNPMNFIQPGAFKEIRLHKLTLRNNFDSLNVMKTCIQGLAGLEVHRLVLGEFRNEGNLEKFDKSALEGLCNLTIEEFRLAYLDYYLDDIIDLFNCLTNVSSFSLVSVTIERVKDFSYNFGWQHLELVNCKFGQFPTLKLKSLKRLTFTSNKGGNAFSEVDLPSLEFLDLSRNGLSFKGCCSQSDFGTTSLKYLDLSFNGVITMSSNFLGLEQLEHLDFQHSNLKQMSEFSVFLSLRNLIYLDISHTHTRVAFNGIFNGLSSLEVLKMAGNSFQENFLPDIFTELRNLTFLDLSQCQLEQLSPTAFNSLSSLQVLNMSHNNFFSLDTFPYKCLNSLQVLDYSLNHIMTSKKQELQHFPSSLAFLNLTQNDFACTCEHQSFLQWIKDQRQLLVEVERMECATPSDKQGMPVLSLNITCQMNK

Key:
[1] = target: histidine (his)-tagged human TLR4 (human) (UniProt O00206); assay: competition pull-down: 500 ng/ml N-peptide with His-TLR4 on beads, then Flag-hRetn
[2] = target: histidine (his)-tagged human TLR4 (human) (UniProt O00206); assay: competitive co-immunoprecipitation

binding [1]: binds
binding [2]: binds
B1: hRetn N-terminal peptide (1-23 a.a.) (SEQ ID NO: 2) (peptide)
peptide: MEEAINERIQEVAGSLIFRAISS
